PubChem BioAssay AID1159578 – Peter MacCallum Cancer Centre, 2015
The whole screen tested about 18,000 reagents; this is a part drawn at random. Over the whole deposit, about 1,030 (5.7%) are marked active. 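Inactive calls also include pools with fewer than 3300 nuclei, whose migration was not assessed.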 Raw values are not corrected between plates. Unmarked entries are inactive. Not all columns of the deposit are shown.

- Test: 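Knock-downs that alter how fast lymphatic endothelial cells migrate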 (primary screen)
- Cells: human lymphatic endothelial cells
- Knock-down reagent: siRNA pool against human genes, 40 nM
- Timing: 48 h after transfection
- Detection: 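Cells stained with dye and imaged after a scratch; covered wound area and nuclei counted, duplicates averaged, migration set against mock wells and turned into a robust z-score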
- Reading the numbers: migration robust z-score: higher = faster migration into the scratch; nuclei per well: higher = more cells in the well
- Hit rule: 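Pools averaging fewer than 3300 nuclei are never called; remaining pools count as changed when migration robust z lies outside -2 to 2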
- Meaning of the calls: active = migration changed; inactive = no migration change, or too few cells

With knock-down of TEX56P (GeneID 404220) the results were migration robust z-score 0.81; migration class with cell-count check migration z between -2 and 2; enough cells; nuclei per well, duplicate mean 4695. For TBC1D22B (GeneID 55633) the deposit lists migration robust z-score 1.66; migration class with cell-count check migration z between -2 and 2; enough cells; nuclei per well, duplicate mean 7204. AP1G1 (GeneID 164) scored migration robust z-score 1.04; migration class with cell-count check migration z between -2 and 2; enough cells; nuclei per well, duplicate mean 7382. Against ADAMTS6 (GeneID 11174), the values are migration robust z-score -0.47; migration class with cell-count check migration z between -2 and 2; enough cells; nuclei per well, duplicate mean 5500. With knock-down of CTNND2 (GeneID 1501) the results were migration robust z-score -0.58; migration class with cell-count check migration z between -2 and 2; enough cells; nuclei per well, duplicate mean 5917. TTF2 (GeneID 8458) gave migration robust z-score 0.18; migration class with cell-count check migration z between -2 and 2; enough cells; nuclei per well, duplicate mean 5900.

GLRX5 (GeneID 51218) scored migration robust z-score 1.25; migration class with cell-count check migration z between -2 and 2; enough cells; nuclei per well, duplicate mean 5791. Silencing of WIPF2 (GeneID 147179) came out at: migration robust z-score 0.17; migration class with cell-count check migration z between -2 and 2; enough cells; nuclei per well, duplicate mean 5709. Silencing of MCM9 (GeneID 254394) resulted in: migration robust z-score 0.22; migration class with cell-count check migration z between -2 and 2; enough cells; nuclei per well, duplicate mean 5590. After knock-down of RFX2 (GeneID 5990), the record shows migration robust z-score 0.38; migration class with cell-count check migration z between -2 and 2; enough cells; nuclei per well, duplicate mean 6710. ZNF514 (GeneID 84874) scored migration robust z-score -0.47; migration class with cell-count check migration z between -2 and 2; enough cells; nuclei per well, duplicate mean 4586. Knock-down of ARHGEF17 (GeneID 9828) gave: migration robust z-score 0.21; migration class with cell-count check migration z between -2 and 2; enough cells; nuclei per well, duplicate mean 5787.

ACOXL (GeneID 55289) scored migration robust z-score -0.57; migration class with cell-count check migration z between -2 and 2; enough cells; nuclei per well, duplicate mean 4980. Silencing of KIF20B (GeneID 9585) resulted in: migration robust z-score -0.1; migration class with cell-count check migration z between -2 and 2; enough cells; nuclei per well, duplicate mean 6386. SPAG4 (GeneID 6676) showed migration robust z-score 0.42; migration class with cell-count check migration z between -2 and 2; enough cells; nuclei per well, duplicate mean 6655. After knock-down of FRMPD1 (GeneID 22844), the screen gave migration robust z-score 0.71; migration class with cell-count check migration z between -2 and 2; enough cells; nuclei per well, duplicate mean 6261. After knock-down of MFF (GeneID 56947), the screen gave migration robust z-score -0.99; migration class with cell-count check migration z between -2 and 2; enough cells; nuclei per well, duplicate mean 5551. ADCY7 (GeneID 113) gave migration robust z-score 0.26; migration class with cell-count check migration z between -2 and 2; enough cells; nuclei per well, duplicate mean 4553.

Against ANO3 (GeneID 63982), the entry reads migration robust z-score 0.75; migration class with cell-count check migration z between -2 and 2; enough cells; nuclei per well, duplicate mean 6694. POLD1 (GeneID 5424) showed migration robust z-score 0.5; migration class with cell-count check migration z between -2 and 2; enough cells; nuclei per well, duplicate mean 5504. With knock-down of BASP1 (GeneID 10409) the results were migration robust z-score -1.91; migration class with cell-count check migration z between -2 and 2; enough cells; nuclei per well, duplicate mean 3634.

Only “nuclei per well, duplicate mean” (3 entries from above):
ACOXL (GeneID 55289)	4980
KIF20B (GeneID 9585)	6386
SPAG4 (GeneID 6676)	6655
